Paper PMC10163288
Some of the results follow.

B1: il2ra_site1_3nfp_sap_9_mot_HHH_b1_03716_af2_000000235_0001_20_37_H_._HHH_b1_05438_0001_0000400011_0000001_0_0001_af2pred_0001_af2pred_1 (protein)
chain: SSSSTELKELLKIVQRLFEEFNLSEEQAQELLQLAEELAKEGVSLEEIEELLRELAERLSSSSSS
B2: il2ra_site1_1z92_sap_19_mot_0d89ad2be31940e41b8548213a5e2889_0001_000000090_0001_19_33_H_._HEEHE_1422_0002_0000200016_0000001_0_0001_af2pred_dldesign_0_af2pred (protein)
chain: SSSSSDELADEIYDLFNEASKEKDKEKRKELLNKALELAKKNKDSKTVAEIENYLKMSKSSSSSS
B3: il2ra_site1_2b5i_normal_mot_f5ff40796168375b462bec8614a1db4a_0001_1_000000138_0001_53_65_H_._HHH_b1_00609_af2_0001_0000100003_0000001_0_af2pred_dldesign_0_af2pr … (protein)
chain: SSSSMDPAERLAEFLATADKLSDKNEQIKLLRLARRWARKQGDAEALAALEARLKEVLESSSSSS
B4: il2ra_site1_3nfp_sap_16_mot_cc4219192d8ccd35c40e7b68f9a57604_0001_af2_000000124_0001_16_32_H_._HHH_b2_07250_af2_0001_0000100007_0000001_0_0001 (protein)
chain: DAEEIAEAVEELLEFAARLDSVSVTVENGELHVTVEGDDVQARHALKLAEHAAKAFGIEVTVETE
B5: il2ra_site2_2erj_sap_24_mot_HHH_b1_00071_af2_000000225_0001_40_56_H_._HHH_b2_07109_0001_0000200010_0000001_0_0001 (protein)
chain: SSSSSEAEEEALRLAWEALRANYEGNPEEARELLERAFELAEEGNDEHLLHLIESALETLSSSSS
B6: il2ra_site2_2erj_normal_mot_HHH_b1_05749_af2_000000086_0001_23_39_H_._HHH_b1_02897_0001_0000200005_0000001_0 (protein)
chain: SSSSSSSEVEEEVEELLEQAKRITDLREAYELASEALRLAAENNNRELLELIRRVLEELSSSSSS
B7: il2ra_site1_1z92_normal_mot_HHH_b1_06286_000000038_0001_40_57_H_._HHH_b2_03353_0001_0000300009_0000001_0_af2pred_0001_af2pred (protein)
chain: SSSSDEEELRERLRELAERAGVTEEDLEFFEEQVRRALELGNPESAEAVVRQFERSARRSSSSSS
B8: il2ra_site1_3nfp_sap_20_mot_HHH_b1_00678_af2_000000150_0001_43_56_H_._HHH_b1_02486_0001_0000900022_0000001_0_0001_af2pred_0001_af2pred_swapped (protein)
chain: SSSEEEVEELLKQAERIAEELGSRAARLFVERAEKLAREAAKLNDEEKLERVAEALEEFLEQASS
B9: il2ra_site1_1z92_sap_9_mot_HHH_b2_04965_af2_000000085_0001_3_17_H_._HHH_b1_08109_af2_0001_0000100003_0000001_0_0001 (protein)
chain: SEAEEVIEELIEALREGDEELVRRLEKELEKWLGSPDAVEFVAMLAERAAKGDPKAERLLEKLLR
B10: il2ra_site2_2erj_normal_mot_HHH_b2_08028_000000126_0001_18_34_H_._HHH_b2_01768_af2_0001_0000600056_0000001_0 (protein)
chain: SSSSDEEELEELLERAKRLLEEGNPEEAHEVLSEAFELAYRLRDFEAFSELAELALEVLGSSSSS
B11: il2ra_site1_2b5i_sap_16_mot_HHH_b1_06138_000000206_0001_1_17_H_._HHH_b1_04517_0001_0001000042_0000001_0_0001_af2pred_0001_af2pred (protein)
chain: SSSSSSDEADELYREASRLWLRGNKEEAERLLEEAIEIAEREGDEEIVRELRHFLERASSSSSSS
B12: il2ra_site2_3nfp_sap_16_mot_HHH_b1_03376_000000004_0001_41_55_H_._ems_p1-15H-GBL-16H-GBL-15H_0656_0001_0001_0001_af2_0001_0000700003_0000001_0_0001 (protein)
chain: SSSSSSEEIEERVEELLEEAKKIEDPEERRKVLAEAAHLAWEGRDPRLFMAVAEVAYELLSSSSS
B13: il2ra_site1_3nfp_sap_12_mot_HHH_b2_03448_000000071_0001_40_54_H_._HHH_b1_04006_0001_0000200010_0000001_0_0001_af2pred_0001_af2pred_1_swapped (protein)
chain: SSSSDEVVELLLELSERLREAMRNSDEELLEELLEELRELLEQYGDPRVRRLIESLEKALGSSSS
B14: il2ra_site1_3nfp_sap_19_mot_HHH_b1_00160_000000267_0001_1_17_H_._HHH_b2_05199_af2_0001_0000100006_0000001_0_0001_af2pred_0001_af2pred_1_swapped (protein)
chain: SEEEVLEKLEELAKNPEEKALVKLIKQAVELHNIPPEEALELLLELFKKAGDPLYELVEELKERG
B15: il2ra_site2_2erj_normal_mot_HHH_b2_07568_000000046_0001_18_34_H_._HHH_b1_00778_af2_0001_0000300010_0000001_0 (protein)
chain: SSSDKEEAEELYEEAKELLERGNPEEAEKVLRRASELAFEAGDFELFNKLAELLRKIAELGSSSS
B16: il2ra_site1_3nfp_sap_18_mot_HHH_b1_02961_000000054_0001_1_18_H_._HHH_b1_00507_af2_0001_0000100005_0000001_0_0001_af2pred_0001_af2pred_1 (protein)
chain: DEEEELAERIRQAVEKNDPELLRRVAEELLRKLGDPAEAAKLFEELLEKAGLSPREKLRAMRLVA
B17: il2ra_site1_3nfp_sap_17_mot_HHH_b1_07180_af2_000000260_0001_1_19_H_._HHH_b2_06088_af2_0001_0000300034_0000001_0_0001 (protein)
chain: DERRVDEYFVRMVAEAAGVPSVEVTVHNGKFHVTISGDDEAAEKVAEKIEEAAERATLDLEVEVE
B18: il2ra_site1_1z92_normal_mot_66bb1f637706d7249e1dd387c51866da_0001_1_000000118_0001_54_65_H_._b453c5b638ed7abcdda957363cf0b98a_0001_0001_0000100001_0000001_0_af2 … (protein)
chain: SHAEVRRLAAELGVPEQATDRFLRLLDEFSKLADERTAVQAILDLAEKLNDPDLARLARAVLSLP

What follows are binders tested against il2ra, P01589 (assay: yeast display titration).

Apparent Kd, inactive:
B1 no binding seen
B2 no binding seen
B3 no binding seen
B4 no binding seen
B5 no binding seen
B6 no binding seen
B7 no binding seen
B8 no binding seen
B9 no binding seen
B10 no binding seen
B11 no binding seen
B12 no binding seen
B13 no binding seen
B14 no binding seen
B15 no binding seen
B16 no binding seen
B17 no binding seen
B18 no binding seen

Retrieved one by one from the entries so far, two records:
Apparent Kd, inactive:
B17 no binding seen
B15 no binding seen
